These are yes or no findings as the source states them, for the method shown. In cells and extracts the contact can be indirect. A yes stands for co-enrichment or nearness to the bait. Other partners may have been found. Where a sequence is shown, tags or fusion partners need not be part of it.
Target: Flag-tagged PARP1 (Flag-hPARP1), poly(ADP-ribose) polymerase 1 (human) (UniProt P09874)
Assay: affinity purification with mass spectrometry; nuclear extracts of T/G HA-VSMCs with the Flag-PARP1 vector or an empty vector; anti-FLAG M2 affinity gel overnight at 4 °C; additional band around 150 kDa analysed by LC–MS/MS

Protein sequences, listed by entry. Tags and fused reporters are not part of them.
UniProt P09874: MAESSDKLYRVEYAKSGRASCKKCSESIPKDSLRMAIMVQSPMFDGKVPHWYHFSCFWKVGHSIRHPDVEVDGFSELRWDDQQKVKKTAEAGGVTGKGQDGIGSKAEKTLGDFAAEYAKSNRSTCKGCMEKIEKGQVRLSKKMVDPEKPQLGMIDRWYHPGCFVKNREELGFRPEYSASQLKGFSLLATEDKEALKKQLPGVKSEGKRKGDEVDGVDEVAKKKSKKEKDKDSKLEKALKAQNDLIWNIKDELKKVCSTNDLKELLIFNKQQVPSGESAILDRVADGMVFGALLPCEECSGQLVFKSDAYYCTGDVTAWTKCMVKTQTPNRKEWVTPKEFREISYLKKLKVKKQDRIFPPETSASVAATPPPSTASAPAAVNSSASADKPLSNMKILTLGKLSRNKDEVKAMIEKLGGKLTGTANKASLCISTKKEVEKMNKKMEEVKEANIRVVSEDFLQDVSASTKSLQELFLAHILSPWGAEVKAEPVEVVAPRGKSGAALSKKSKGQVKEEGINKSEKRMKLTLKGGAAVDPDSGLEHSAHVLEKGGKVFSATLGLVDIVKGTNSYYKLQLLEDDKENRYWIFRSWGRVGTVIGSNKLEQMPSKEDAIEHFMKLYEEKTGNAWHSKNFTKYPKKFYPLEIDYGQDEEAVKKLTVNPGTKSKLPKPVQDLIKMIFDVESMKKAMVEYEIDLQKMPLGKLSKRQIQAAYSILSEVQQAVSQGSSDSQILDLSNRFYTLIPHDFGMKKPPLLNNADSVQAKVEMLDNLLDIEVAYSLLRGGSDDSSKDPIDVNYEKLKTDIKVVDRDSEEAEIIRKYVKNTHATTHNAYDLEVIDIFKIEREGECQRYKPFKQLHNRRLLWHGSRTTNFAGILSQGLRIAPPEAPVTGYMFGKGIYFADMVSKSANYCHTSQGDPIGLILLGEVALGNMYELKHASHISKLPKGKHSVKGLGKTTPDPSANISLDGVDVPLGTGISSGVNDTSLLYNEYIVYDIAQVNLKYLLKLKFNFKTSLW

B1: myocardin (endogenous, T/G HA-VSMC) (protein, UniProt Q8IZQ8 1-938)
chain: MTLLGSEHSLLIRSKFRSVLQLRLQQRRTQEQLANQGIIPPLKRPAEFHEQRKHLDSDKAKNSLKRKARNRCNSADLVNMHILQASTAERSIPTAQMKLKRARLADDLNEKIALRPGPLELVEKNILPVDSAVKEAIKGNQVSFSKSTDAFAFEEDSSSDGLSPDQTRSEDPQNSAGSPPDAKASDTPSTGSLGTNQDLASGSENDRNDSASQPSHQSDAGKQGLGPPSTPIAVHAAVKSKSLGDSKNRHKKPKDPKPKVKKLKYHQYIPPDQKAEKSPPPMDSAYARLLQQQQLFLQLQILSQQQQQQQHRFSYLGMHQAQLKEPNEQMVRNPNSSSTPLSNTPLSPVKNSFSGQTGVSSFKPGPLPPNLDDLKVSELRQQLRIRGLPVSGTKTALMDRLRPFQDCSGNPVPNFGDITTVTFPVTPNTLPNYQSSSSTSALSNGFYHFGSTSSSPPISPASSDLSVAGSLPDTFNDASPSFGLHPSPVHVCTEESLMSSLNGGSVPSELDGLDSEKDKMLVEKQKVINELTWKLQQEQRQVEELRMQLQKQKRNNCSEKKPLPFLAASIKQEEAVSSCPFASQVPVKRQSSSSECHPPACEAAQLQPLGNAHCVESSDQTNVLSSTFLSPQCSPQHSPLGAVKSPQHISLPPSPNNPHFLPSSSGAQGEGHRVSSPISSQVCTAQMAGLHSSDKVGPKFSIPSPTFSKSSSAISEVTQPPSYEDAVKQQMTRSQQMDELLDVLIESGEMPADAREDHSCLQKVPKIPRSSRSPTAVLTKPSASFEQASSGSQIPFDPYATDSDEHLEVLLNSQSPLGKMSDVTLLKIGSEEPHFDGIMDGFSGKAAEDLFNAHEILPGPLSPMQTQFSPSSVDSNGLQLSFTESPWETMEWLDLTPPNSTPGFSALTTSSPSIFNIDFLDVTDLNLNSSMDLHLQQW
With B1 the binding was “binds”.

— article PMC12411612
